Data source: PubChem BioAssay AID1224828 (NIAID, 2016)

- Aim: 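Regulators linking TLR4 signalling to p65 nuclear translocation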 (primary screen)
- Cell system: mouse RAW264.7 G9 macrophage reporter cells (GFP-p65, Tnf promoter-mCherry)
- Knock-down reagent: siRNA pool against mouse genes, 100 nM
- Duration: 2 days siRNA transfection, then 40 min LPS before fixation
- Conditions: LPS (Salmonella minnesota R595) at 10 ng/ml
- Detection: 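Microscopy ratio of nuclear to perinuclear-ring GFP-p65 signal, scaled to the plate median; gene score is the average of two replicate robust z-scores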
- Direction: p65 translocation robust z-score: higher = more nuclear NF-kappaB p65 after LPS than the plate median; nuclear/cytoplasmic p65 ratio: higher = more nuclear NF-kappaB p65
- Call rule: 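Active if robust z is above 3.3 (negative regulators) or below -1.56, the Tlr4 control median (positive regulators); activity score 50 or more; control wells not called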
- Calls: active = hit (p65 shift raised or lowered); inactive = no clear change
This is a random part of about 17,000 reagents tested. 762 of all reagents (4.5%) count as active. 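Active calls include both raised and lowered p65 entry, mostly lowered; wells with fewer than 50 cells lack a z-score.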 Raw values vary from plate to plate and are shown uncorrected. A reagent listed more than once was tested more than once; the source does not tell the runs apart.

| gene | p65 translocation robust z-score | nuclear/cytoplasmic p65 ratio, rep 1 | nuclear/cytoplasmic p65 ratio, rep 2 | low cell count flag | Outcome |
| --- | --- | --- | --- | --- | --- |
| Il17b | 1.82 | 1.68 | 1.65 | enough cells to score | inactive |
| Mpz | 0.57 | 1.54 | 1.39 | enough cells to score | inactive |
| Plekhg2 | 0.11 | 1.59 | 1.67 | enough cells to score | inactive |
| Gpr152 | -0.8 | 1.36 | 1.5 | enough cells to score | inactive |
| Cimip2c | 1.73 | 1.54 | 1.64 | enough cells to score | inactive |
| Or2w4 | 0.39 | 1.66 | 1.45 | enough cells to score | inactive |
| Mff | – | 1.24 | 1.26 | fewer than 50 cells per well; well left out of scoring | inactive |
| Scg3 | -0.39 | 1.43 | 1.49 | enough cells to score | inactive |
| Cwh43 | – | 1.12 | 1.4 | fewer than 50 cells per well; well left out of scoring | inactive |
| Or1a1 | – | 1.53 | 1.35 | fewer than 50 cells per well; well left out of scoring | inactive |
| Or1a1 | 0.6 | 1.64 | 1.63 | enough cells to score | inactive |
| Mios | 1.58 | 1.8 | 2.13 | enough cells to score | inactive |
| Scgb2b24 | 1.12 | 1.68 | 1.58 | enough cells to score | inactive |
| Or14j10 | 0.38 | 1.82 | 1.55 | enough cells to score | inactive |
| Ppp4r3b | 0.26 | 1.54 | 1.65 | enough cells to score | inactive |
| Mbtd1 | -0.46 | 1.38 | 1.29 | enough cells to score | inactive |
| Capg | -0.91 | 1.43 | 1.52 | enough cells to score | inactive |
| Rgr | 0.88 | 1.61 | 1.74 | enough cells to score | inactive |
| Phospho2 | -1.69 | 1.22 | 1.2 | enough cells to score | active |
| Fastkd5 | 1.32 | 1.91 | 1.87 | enough cells to score | inactive |
| Ido2 | 1.09 | 1.6 | 1.66 | enough cells to score | inactive |
| Coro6 | 1.54 | 1.76 | 2.08 | enough cells to score | inactive |
| Nucks1 | -0.26 | 1.49 | 1.51 | enough cells to score | inactive |
| Nutf2 | 0.55 | 1.87 | 1.55 | enough cells to score | inactive |
| Scgb1b27 | -0.75 | 1.52 | 1.54 | enough cells to score | inactive |
| Poli | -0.59 | 1.29 | 1.16 | enough cells to score | inactive |
| Synm | 0.26 | 1.51 | 1.38 | enough cells to score | inactive |
| Nrk | -0.48 | 1.68 | 1.26 | enough cells to score | inactive |
| Ptx3 | -0.24 | 1.35 | 1.15 | enough cells to score | inactive |
| Nhsl1 | – | 1.33 | 1.62 | fewer than 50 cells per well; well left out of scoring | inactive |
| Pecam1 | -0.06 | 1.45 | 1.4 | enough cells to score | inactive |
| St8sia4 | – | 1.42 | 1.19 | fewer than 50 cells per well; well left out of scoring | inactive |
| Mmrn2 | -0.43 | 1.76 | 1.49 | enough cells to score | inactive |
| Dennd2a | 0.18 | 1.63 | 1.85 | enough cells to score | inactive |
| Htr1a | -1.14 | 1.39 | 1.37 | enough cells to score | inactive |
| Ints11 | – | 1.35 | 1.58 | fewer than 50 cells per well; well left out of scoring | inactive |
| Serinc5 | 0.66 | 1.45 | 1.64 | enough cells to score | inactive |
| Sprr2h | 0.97 | 1.62 | 1.28 | enough cells to score | inactive |
| Shc4 | – | 1.03 | 1.12 | fewer than 50 cells per well; well left out of scoring | inactive |
| Reg3d | -0.03 | 1.61 | 1.37 | enough cells to score | inactive |
